Test results from US4587218A, “Novel bioconverting microorganisms” (priority 1983, dated 1986).
The name of at least one read-out is uncertain.

Assays:
Assay in all cases: Antibiotic sensitivity, disc on seeded agar plates
Assay type in all cases: cell-based
Set-up in all cases: key: +: sensitive (zone of inhibition); -: resistant (no zone inhibition)
Settings in all cases: discs: cephalothin, chloromycetin, novobiocin, tetracycline, vancomycin 30 μg, erythromycin 15 μg, streptomycin 10 μg, rifampin 5 μg, penicillin G 10 units, 30° C., 14 days
[1] = system: Actinoplanes missouriensis ATCC 23342
[2] = system: Actinoplanes missouriensis ATCC 31683
[3] = system: Actinoplanes missouriensis CSV 558
[4] = system: Actinoplanes missouriensis CUC 014

Row | Compound | Antibiotic sensitivity [1] | Antibiotic sensitivity [2] | Antibiotic sensitivity [3] | Antibiotic sensitivity [4]
1 | CC(=O)OCC1=C(C(=O)O)N2C(=O)[C@@H](NC(=O)Cc3cccs3)[C@H]2SC1 [Cephalothin] | + | + | + | +
2 | O=C(N[C@H](CO)[C@H](O)c1ccc([N+](=O)[O-])cc1)C(Cl)Cl [Chloromycetin] | + | + | + | +
3 | CC[C@H]1OC(=O)[C@H](C)[C@@H](O[C@H]2C[C@@](C)(OC)[C@@H](O)[C@H](C)O2)[C@H](C)[C@@H](O[C@@H]2O[C@H](C)C[C@H](N(C)C)[C@H]2O)[C@](C)(O)C[C@@H](C)C(=O)[C@H](C)[C@@H](O)[C@]1(C)O [Erythromycin] | + | + | + | +
4 | CO[C@@H]1[C@@H](OC(N)=O)[C@@H](O)[C@H](Oc2ccc3c(O)c(NC(=O)c4ccc(O)c(CC=C(C)C)c4)c(=O)oc3c2C)OC1(C)C [Novobiocin] | - | - | - | -
5 | CC1(C)S[C@@H]2[C@H](NC(=O)Cc3ccccc3)C(=O)N2[C@H]1C(=O)O [Penicillin G] | - | - | - | -
6 | CO[C@H]1/C=C/O[C@@]2(C)Oc3c(C)c(O)c4c(O)c(c(/C=N/N5CCN(C)CC5)c(O)c4c3C2=O)NC(=O)/C(C)=C\C=C\[C@H](C)[C@H](O)[C@@H](C)[C@@H](O)[C@@H](C)[C@H](OC(C)=O)[C@@H]1C [Rifampin] | + | + | + | +
7 | [H]/N=C(/N)N[C@H]1[C@H](O)[C@@H](O)[C@H](O[C@@H]2O[C@@H](C)[C@](O)(C=O)[C@H]2O[C@@H]2O[C@@H](CO)[C@H](O)[C@@H](O)[C@@H]2NC)[C@@H](N/C(N)=N\[H])[C@@H]1O [Streptomycin] | + | + | + | +
8 | CN(C)C1C(=O)C(C(N)=O)=C(O)C2(O)C(=O)C3=C(O)c4c(O)cccc4C(C)(O)C3CC12 (stereo not drawn) [Tetracycline] | + | + | + | +
9 | CN[C@H](CC(C)C)C(=O)N[C@H]1C(=O)N[C@@H](CC(N)=O)C(=O)N[C@H]2C(=O)N[C@H]3C(=O)N[C@H](C(=O)N[C@H](C(=O)O)c4cc(O)cc(O)c4-c4cc3ccc4O)[C@H](O)c3ccc(c(Cl)c3)Oc3cc2cc(c3O[C@@H]2O[C@H](CO)[C@@H](O)[C@H](O)[C@H]2O[C@H]2C[C@](C)(N)[C@H](O)[C@H](C)O2)Oc2ccc(cc2Cl)[C@H]1O [Vancomycin] | + | + | + | +
